The results in this text go back to paper PMC13538393.

Chains of the proteins cited; added tags and fusions are not shown.
UniProt Q96RR4: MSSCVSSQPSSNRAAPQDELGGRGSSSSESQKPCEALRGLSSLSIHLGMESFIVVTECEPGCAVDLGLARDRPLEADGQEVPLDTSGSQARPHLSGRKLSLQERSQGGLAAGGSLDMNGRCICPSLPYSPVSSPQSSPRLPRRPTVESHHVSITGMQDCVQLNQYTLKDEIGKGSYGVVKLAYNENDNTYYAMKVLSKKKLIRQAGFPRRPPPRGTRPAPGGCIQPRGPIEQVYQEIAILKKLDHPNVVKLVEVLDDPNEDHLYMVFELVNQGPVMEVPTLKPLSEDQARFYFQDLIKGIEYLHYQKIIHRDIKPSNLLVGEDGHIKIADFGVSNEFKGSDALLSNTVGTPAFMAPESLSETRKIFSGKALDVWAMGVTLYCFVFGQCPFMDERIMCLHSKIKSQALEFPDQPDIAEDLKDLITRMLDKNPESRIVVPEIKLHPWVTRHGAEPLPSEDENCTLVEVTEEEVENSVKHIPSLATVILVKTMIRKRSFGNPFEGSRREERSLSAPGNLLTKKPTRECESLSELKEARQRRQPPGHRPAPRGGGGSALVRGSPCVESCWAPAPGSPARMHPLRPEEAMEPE
UniProt Q13131: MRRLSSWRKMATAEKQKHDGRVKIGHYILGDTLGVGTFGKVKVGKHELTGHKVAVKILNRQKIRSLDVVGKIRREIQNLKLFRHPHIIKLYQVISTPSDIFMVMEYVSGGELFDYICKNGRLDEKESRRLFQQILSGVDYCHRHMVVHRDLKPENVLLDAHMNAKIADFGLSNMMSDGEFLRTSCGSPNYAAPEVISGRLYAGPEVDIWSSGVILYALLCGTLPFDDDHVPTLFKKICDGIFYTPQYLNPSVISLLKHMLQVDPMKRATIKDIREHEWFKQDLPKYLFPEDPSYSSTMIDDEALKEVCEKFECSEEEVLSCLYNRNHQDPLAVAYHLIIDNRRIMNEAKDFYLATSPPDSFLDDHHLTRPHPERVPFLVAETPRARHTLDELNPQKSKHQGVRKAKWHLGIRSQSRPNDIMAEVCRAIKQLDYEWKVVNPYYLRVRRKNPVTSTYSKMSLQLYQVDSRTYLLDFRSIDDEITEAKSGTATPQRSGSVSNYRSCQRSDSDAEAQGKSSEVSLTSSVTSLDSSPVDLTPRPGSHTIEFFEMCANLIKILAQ
UniProt P63104: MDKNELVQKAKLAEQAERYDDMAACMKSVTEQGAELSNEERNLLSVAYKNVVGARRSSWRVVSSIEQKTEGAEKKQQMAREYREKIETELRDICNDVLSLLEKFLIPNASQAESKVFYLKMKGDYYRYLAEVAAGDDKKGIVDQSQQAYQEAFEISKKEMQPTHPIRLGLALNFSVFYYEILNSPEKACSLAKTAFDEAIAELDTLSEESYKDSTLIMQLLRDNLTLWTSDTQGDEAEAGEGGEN
UniProt P49736: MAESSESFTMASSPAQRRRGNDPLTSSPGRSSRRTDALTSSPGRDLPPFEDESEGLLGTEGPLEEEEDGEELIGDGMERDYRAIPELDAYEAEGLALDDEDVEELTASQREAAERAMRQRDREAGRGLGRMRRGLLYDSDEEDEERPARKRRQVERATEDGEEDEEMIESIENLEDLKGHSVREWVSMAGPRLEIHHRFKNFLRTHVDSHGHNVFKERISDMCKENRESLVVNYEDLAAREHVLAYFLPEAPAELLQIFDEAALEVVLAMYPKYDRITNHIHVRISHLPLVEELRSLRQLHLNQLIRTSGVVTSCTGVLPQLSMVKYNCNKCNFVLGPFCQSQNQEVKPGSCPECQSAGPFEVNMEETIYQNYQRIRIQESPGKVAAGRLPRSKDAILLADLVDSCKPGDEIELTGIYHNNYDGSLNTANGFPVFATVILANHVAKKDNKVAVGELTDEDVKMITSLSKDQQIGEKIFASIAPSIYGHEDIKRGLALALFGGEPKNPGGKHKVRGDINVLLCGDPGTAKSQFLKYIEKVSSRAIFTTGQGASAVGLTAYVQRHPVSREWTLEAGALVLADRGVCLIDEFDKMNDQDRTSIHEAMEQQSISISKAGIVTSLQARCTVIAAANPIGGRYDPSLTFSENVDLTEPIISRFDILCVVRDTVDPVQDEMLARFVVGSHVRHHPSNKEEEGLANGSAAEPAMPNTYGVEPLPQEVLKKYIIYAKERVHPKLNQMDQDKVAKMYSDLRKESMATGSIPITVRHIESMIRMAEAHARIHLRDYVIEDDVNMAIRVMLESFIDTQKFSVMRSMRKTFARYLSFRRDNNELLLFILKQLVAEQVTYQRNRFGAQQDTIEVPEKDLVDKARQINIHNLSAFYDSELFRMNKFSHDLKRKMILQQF
UniProt O75147: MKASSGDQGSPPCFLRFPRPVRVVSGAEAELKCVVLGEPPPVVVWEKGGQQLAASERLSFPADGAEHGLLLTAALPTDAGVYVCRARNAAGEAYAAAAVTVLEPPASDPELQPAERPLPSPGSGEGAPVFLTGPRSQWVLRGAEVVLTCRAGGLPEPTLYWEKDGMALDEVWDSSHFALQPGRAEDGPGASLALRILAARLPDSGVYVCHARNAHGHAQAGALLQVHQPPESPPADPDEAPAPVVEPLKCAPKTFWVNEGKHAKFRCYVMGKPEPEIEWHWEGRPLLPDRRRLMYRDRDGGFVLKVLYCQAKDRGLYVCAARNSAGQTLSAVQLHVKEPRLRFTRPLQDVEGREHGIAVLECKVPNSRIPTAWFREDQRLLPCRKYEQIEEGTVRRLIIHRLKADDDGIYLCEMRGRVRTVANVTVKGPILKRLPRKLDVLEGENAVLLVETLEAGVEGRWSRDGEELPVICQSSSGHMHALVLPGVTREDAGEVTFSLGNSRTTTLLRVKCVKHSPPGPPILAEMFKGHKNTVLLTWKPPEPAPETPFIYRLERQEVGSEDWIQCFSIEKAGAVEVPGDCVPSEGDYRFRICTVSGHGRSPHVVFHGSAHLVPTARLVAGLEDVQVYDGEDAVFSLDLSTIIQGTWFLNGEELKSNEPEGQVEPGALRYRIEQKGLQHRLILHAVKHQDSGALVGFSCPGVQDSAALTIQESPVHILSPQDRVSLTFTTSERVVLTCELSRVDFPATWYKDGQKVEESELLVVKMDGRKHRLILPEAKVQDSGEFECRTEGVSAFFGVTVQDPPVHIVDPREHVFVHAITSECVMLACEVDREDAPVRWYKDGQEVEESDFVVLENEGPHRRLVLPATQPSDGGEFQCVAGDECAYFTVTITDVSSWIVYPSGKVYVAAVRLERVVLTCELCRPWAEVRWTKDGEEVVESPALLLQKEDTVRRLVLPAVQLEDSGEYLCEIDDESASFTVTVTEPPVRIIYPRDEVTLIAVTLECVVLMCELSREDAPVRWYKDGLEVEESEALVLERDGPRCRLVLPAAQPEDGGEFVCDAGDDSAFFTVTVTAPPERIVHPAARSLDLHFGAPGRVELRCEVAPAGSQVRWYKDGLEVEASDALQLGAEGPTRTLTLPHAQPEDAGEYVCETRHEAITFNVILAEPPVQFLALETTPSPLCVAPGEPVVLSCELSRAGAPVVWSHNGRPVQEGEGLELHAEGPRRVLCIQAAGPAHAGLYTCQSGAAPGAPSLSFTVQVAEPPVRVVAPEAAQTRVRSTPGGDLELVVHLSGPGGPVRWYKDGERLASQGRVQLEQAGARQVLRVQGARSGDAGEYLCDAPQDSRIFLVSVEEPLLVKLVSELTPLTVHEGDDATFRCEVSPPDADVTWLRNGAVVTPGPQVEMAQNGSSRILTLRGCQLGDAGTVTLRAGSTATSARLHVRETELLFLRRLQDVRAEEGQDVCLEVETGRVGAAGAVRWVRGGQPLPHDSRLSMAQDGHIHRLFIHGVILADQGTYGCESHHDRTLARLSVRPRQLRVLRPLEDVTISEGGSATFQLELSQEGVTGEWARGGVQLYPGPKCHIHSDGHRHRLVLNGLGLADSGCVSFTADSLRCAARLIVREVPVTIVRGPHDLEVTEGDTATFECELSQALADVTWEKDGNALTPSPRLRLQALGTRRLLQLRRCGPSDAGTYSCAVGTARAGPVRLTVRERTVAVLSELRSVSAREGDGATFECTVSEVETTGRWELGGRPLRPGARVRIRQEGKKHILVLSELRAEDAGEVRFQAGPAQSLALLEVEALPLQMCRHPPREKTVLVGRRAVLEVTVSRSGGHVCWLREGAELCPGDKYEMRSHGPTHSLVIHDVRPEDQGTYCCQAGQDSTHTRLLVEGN
UniProt P55786: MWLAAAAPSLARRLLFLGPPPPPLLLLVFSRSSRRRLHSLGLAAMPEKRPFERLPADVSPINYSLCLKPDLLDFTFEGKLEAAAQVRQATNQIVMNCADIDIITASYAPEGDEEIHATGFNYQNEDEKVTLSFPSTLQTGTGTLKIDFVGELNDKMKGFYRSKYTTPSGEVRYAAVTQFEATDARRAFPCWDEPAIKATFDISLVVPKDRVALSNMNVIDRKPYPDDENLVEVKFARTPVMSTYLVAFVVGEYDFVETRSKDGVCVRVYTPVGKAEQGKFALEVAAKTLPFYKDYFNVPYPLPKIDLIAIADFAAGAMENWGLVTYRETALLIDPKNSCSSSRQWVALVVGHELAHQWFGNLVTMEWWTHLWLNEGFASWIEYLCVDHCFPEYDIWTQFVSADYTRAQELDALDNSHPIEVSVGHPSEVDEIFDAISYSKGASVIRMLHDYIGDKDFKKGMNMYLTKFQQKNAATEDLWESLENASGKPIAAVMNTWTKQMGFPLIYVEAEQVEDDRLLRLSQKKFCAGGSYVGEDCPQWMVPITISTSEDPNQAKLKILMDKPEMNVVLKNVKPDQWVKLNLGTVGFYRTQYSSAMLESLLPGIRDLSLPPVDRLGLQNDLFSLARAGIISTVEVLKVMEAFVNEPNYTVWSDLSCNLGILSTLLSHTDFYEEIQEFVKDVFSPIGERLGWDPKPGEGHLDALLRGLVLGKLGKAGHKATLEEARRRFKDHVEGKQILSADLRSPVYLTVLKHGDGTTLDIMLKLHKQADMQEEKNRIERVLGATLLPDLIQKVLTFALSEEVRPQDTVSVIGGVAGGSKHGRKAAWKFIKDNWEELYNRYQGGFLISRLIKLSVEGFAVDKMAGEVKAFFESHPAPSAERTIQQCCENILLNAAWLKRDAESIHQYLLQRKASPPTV
UniProt Q93009: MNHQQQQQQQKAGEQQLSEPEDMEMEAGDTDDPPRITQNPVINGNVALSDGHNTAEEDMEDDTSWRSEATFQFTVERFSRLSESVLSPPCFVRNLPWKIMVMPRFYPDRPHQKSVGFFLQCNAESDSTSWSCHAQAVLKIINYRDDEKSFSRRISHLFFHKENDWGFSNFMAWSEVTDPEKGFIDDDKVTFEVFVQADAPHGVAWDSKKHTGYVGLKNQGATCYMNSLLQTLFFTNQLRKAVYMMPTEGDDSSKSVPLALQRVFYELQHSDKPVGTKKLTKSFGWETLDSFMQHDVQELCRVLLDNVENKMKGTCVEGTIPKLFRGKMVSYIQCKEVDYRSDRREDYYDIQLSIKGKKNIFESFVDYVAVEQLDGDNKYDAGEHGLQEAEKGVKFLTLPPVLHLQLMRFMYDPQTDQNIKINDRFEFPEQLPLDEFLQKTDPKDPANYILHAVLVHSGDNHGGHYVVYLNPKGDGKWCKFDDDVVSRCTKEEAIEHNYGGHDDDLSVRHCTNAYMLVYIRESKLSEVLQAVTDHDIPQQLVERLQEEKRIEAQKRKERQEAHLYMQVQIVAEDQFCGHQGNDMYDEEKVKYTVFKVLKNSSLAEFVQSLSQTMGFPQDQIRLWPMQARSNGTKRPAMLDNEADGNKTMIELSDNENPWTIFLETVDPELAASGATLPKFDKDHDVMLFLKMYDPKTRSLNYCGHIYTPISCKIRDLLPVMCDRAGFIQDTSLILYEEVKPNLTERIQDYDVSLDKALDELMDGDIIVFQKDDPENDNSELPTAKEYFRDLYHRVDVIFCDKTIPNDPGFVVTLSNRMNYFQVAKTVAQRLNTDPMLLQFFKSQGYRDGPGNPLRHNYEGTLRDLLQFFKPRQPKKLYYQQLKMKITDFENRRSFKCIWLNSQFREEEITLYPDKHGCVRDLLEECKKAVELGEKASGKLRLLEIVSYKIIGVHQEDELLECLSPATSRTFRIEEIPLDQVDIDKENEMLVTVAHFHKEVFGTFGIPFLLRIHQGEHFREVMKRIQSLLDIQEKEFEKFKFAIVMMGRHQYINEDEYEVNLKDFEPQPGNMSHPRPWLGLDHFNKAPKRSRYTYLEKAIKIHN
UniProt P12004: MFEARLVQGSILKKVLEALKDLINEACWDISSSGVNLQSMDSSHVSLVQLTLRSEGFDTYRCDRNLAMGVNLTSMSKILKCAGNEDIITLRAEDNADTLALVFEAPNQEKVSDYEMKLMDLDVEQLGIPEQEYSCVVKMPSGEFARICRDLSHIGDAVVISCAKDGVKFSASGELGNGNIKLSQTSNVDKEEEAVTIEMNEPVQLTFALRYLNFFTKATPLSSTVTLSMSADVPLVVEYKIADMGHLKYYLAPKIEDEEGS

Changes are numbered by the printed parent chain. Results are given in words; binding and its absence hold for the method and conditions named. In cells and extracts the contact can be indirect. Here binding means that the protein was enriched with, or labelled near, the bait; the list need not be complete. For some of these results: Sequences can lack the tags named with a protein.

The target in test [1] is T1, Checkpoint kinase 1, wild type, N-terminal Strep-HA tag (human) (UniProt O14757).
T1 sequence: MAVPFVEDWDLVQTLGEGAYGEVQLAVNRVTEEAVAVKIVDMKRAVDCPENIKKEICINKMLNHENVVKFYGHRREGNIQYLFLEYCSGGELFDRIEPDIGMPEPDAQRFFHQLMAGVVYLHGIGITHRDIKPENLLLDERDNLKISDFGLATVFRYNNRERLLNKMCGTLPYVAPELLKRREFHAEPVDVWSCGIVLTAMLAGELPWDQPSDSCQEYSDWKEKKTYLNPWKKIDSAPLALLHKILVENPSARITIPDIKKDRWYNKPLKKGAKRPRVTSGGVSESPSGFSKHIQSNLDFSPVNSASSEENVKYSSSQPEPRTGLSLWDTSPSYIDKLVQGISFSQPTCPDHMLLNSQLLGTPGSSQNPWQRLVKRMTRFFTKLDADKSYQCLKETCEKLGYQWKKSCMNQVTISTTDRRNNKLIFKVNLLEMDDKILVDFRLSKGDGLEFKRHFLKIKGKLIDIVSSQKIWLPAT
Kind of test: affinity purification with mass spectrometry; N-terminal Strep-HA-tagged bait induced with doxycycline (24 h) in HEK293 cells; cells treated 4 h with 1 µM inhibitor (SGC-CAMKK2-1, SGC-CAMKK2-1N or rabusertib) or 0.01% DMSO; native lysis in HNN buffer (50 mM HEPES pH 8.0, 150 mM NaCl, 50 mM NaF) with 0.5% IGEPAL; StrepTactin Sepharose, biotin elution; interactors scored against EGFP pulldowns (modified D-score > 1.425).

Test [2] concerns the target Calcium/calmodulin-dependent protein kinase kinase 2, wild type, N-terminal Strep-HA tag (human) (UniProt Q96RR4). The description is as above.
The target of the next test is miniTurbo-PRKAA1 (human) (UniProt Q13131). Kind of test: proximity labelling; N-terminal miniTurbo-tagged bait induced with doxycycline in HEK293 cells; 1 µM inhibitor (SGC-CAMKK2-1, rabusertib or Gö 6983) or 0.01% DMSO for 4 h, 50 µM biotin for the last hour; RIPA lysis; StrepTactin Sepharose; changes upon inhibitor against vehicle, EGFP control.
The target in test [3] is T2, CHEK1 D130A, N-terminal Strep-HA tag (human) (UniProt O14757).
T2 sequence: T1 sequence with D130A
In words: affinity purification with mass spectrometry; N-terminal Strep-HA-tagged bait induced with doxycycline (24 h) in HEK293 cells; cells treated 4 h with 1 µM inhibitor (SGC-CAMKK2-1, SGC-CAMKK2-1N or rabusertib) or 0.01% DMSO; native lysis in HNN buffer (50 mM HEPES pH 8.0, 150 mM NaCl, 50 mM NaF) with 0.5% IGEPAL; StrepTactin Sepharose, biotin elution; interactors scored against EGFP pulldowns (modified D-score > 1.425).

Test [4] addresses T3, CHEK1 L449R, N-terminal Strep-HA tag (human) (UniProt O14757).
T3 sequence: T1 sequence with L449R
Described as above.

In the case of “14-3-3 protein zeta (from UniProt P63104 1-245)”, the binding result in test [1] is “binds”.
Still for that read-out and setting: the same measure for “DNA replication licensing factor MCM2 (from UniProt P49736 1-904)”: “binds”.
As for “Obscurin-like protein 1 (from UniProt O75147 1-1896)”, the binding result in test [2] is “binds”.
Still for that read-out and setting: the result for “Puromycin-sensitive aminopeptidase (from UniProt P55786 1-919)” reads “binds”.
Turning to “Ubiquitin carboxyl-terminal hydrolase 7 (from UniProt Q93009 1-1102)”, the binding entry in test [1] was “binds”.
For “endogenous CAMKK2 (from UniProt Q96RR4 1-588)”, the binding result in the test with miniTurbo-PRKAA1 (human) was “binds”.
Consider “mitochondrial protein CLPB (human (endogenous in HEK293))”, for which the binding result in test [3], in test [4] and in test [1] was “binds” each time.
As to “proliferating cell nuclear antigen (from UniProt P12004 1-261)”, the binding result in test [1] is “binds”.
